The record followed here is patent publication US20250283871A1, “COMPOSITIONS AND METHODS FOR MODULATING THE INTERACTION BETWEEN SS18-SSX FUSION ONCOPROTEIN AND NUCLEOSOMES” (Dana-Farber Cancer Institute, Inc., priority 2020, published 2025).

Several values for one entry are separate records, joined by “and”; a condition that tells them apart may be missing. Identical values can stand only once.

This data set has as its system BAF complex subunits and histone proteins. Briefly: Mass spectrometry proteomics of purified HA-SS18 WT and HA-SS18-SSX1 complexes (Tables 5A-5E). More on the design: species or system human.
[1] abbreviates: HA-SS18SSX1_CHR_peptides: protein identified in the HA-SS18-SSX1 purification from solubilized chromatin (CHR), HEK-293T.
Where [2] appears, read: HA-SS18WT_CHR_peptides: protein identified in HA-SS18 WT BAF complex purification from nuclease-treated solubilized chromatin (CHR), HEK-293T.
Where [3] appears, read: HA-SS18SSX1_NE_peptides: protein co-purified with HA-SS18-SSX1 BAF complexes from soluble nuclear extract (NE), HEK-293T cells.
The mark [4] stands for this setting: HA-SS18WT_CHR_peptides: HA-SS18 WT purification from nuclease-treated solubilized chromatin (CHR), HEK-293T, label = protein identified.
Where [5] appears, read: HA-SS18WT_NE_peptides: HA-SS18 WT complexes purified from nuclear extract (NE), HEK-293T, label = protein identified (Gene Symbol).
Setting [6] is: HA-SS18WT_NE_peptides: proteins co-purified with HA-SS18 WT from nuclear extract (NE), HEK-293T.
The mark [7] stands for this setting: HA-SS18SSX1 purification, NE (soluble nuclear extract) fraction, HEK-293T, peptides per identified protein.

B1: U2SURP (protein, UniProt O15042 2-1029, looked up)
U2 snRNP-associated SURP …: ADKTPGGSQKASSKTRSSDVHSSGSSDAHMDASGPSDSDMPSRTRPKSPRKHNYRNESARESLCDSPHQNLSRPLLENKLKAFSIGKMSTAKRTLSKKEQEELKKKEDEKAAAEIYEEFLAAFEGSDGNKVKTFVRGGVVNAAKEEHETDEKRGKIYKPSSRFADQKNPPNQSSNERPPSLLVIETKKPPLKKGEKEKKKSNLELFKEELKQIQEERDERHKTKGRLSRFEPPQSDSDGQRRSMDAPSRRNRSSGVLDDYAPGSHDVGDPSTTNLYLGNINPQMNEEMLCQEFGRFGPLASVKIMWPRTDEERARERNCGFVAFMNRRDAERALKNLNGKMIMSFEMKLGWGKAVPIPPHPIYIPPSMMEHTLPPPPSGLPFNAQPRERLKNPNAPMLPPPKNKEDFEKTLSQAIVKVVIPTERNLLALIHRMIEFVVREGPMFEAMIMNREINNPMFRFLFENQTPAHVYYRWKLYSILQGDSPTKWRTEDFRMFKNGSFWRPPPLNPYLHGMSEEQETEAFVEEPSKKGALKEEQRDKLEEILRGLTPRKNDIGDAMVFCLNNAEAAEEIVDCITESLSILKTPLPKKIARLYLVSDVLYNSSAKVANASYYRKFFETKLCQIFSDLNATYRTIQGHLQSENFKQRVMTCFRAWEDWAIYPEPFLIKLQNIFLGLVNIIEEKETEDVPDDLDGAPIEEELDGAPLEDVDGIPIDATPIDDLDGVPIKSLDDDLDGVPLDATEDSKKNEPIFKVAPSKWEAVDESELEAQAVTTSKWELFDQHEESEEEENQNQEEESEDEEDTQSSKSEEHHLYSNPIKEEMTESKFSKYSEMSEEKRAKLREIELKVMKFQDELESGKRPKKPGQSFQEQVEHYRDKLLQREKEKELERERERDKKDKEKLESRSKDKKEKDECTPTRKERKRRHSTSPSPSRSSSGRRVKSPSPKSERSERSERSHKESSRSRSSHKDSPRDVSKKAKRSPSGSRTPKRSRRSRSRSPKKSGKKSRSQSRSPHRSHKKSKKNKH
As to B1, under setting [1], the “Total (total peptides)” value stood at 7 and the “Unique (unique peptides)” value is reported as 7. Further, under setting [2], the “Total (total peptides)” value is given as 1 and the “Unique (unique peptides)” value was 1.

B2: HNRNPC (protein, UniProt P07910 2-306, looked up)
Heterogeneous nuclear …: ASNVTNKTDPRSMNSRVFIGNLNTLVVKKSDVEAIFSKYGKIVGCSVHKGFAFVQYVNERNARAAVAGEDGRMIAGQVLDINLAAEPKVNRGKAGVKRSAAEMYGSVTEHPSPSPLLSSSFDLDYDFQRDYYDRMYSYPARVPPPPPIARAVVPSKRQRVSGNTSRRGKSGFNSKSGQRGSSKSGKLKGDDLQAIKKELTQIKQKVDSLLENLEKIEKEQSKQAVEMKNDKSEEEQSSSSVKKDETNVKMESEGGADDSAEEGDLLDDDDNEDRGDDQLELIKDDEKEAEEGEDDRDSANGEDDS
With B2, the “Total (total peptides)” value under setting [1] was 7. In addition, the “Unique (unique peptides)” value under setting [1] was determined as 4. This molecule showed a Total (HA-SS18SSX1_CHR_peptides, total peptides of the identified protein) of 3. The same molecule gave a Unique (HA-SS18SSX1_CHR_peptides, unique peptides of the identified protein) of 2. Further, the “Total (peptides)” value reads like this: under setting [3], 2; under setting [5], 2; under setting [6], 1. The “Unique (peptides)” value reads like this: under setting [3], 2; under setting [4], 3 and 6; under setting [5], 2; under setting [6], 1.

B3: HP1BP3 (protein, UniProt Q5SSJ5 2-553, looked up)
Heterochromatin protein …: ATDTSQGELVHPKALPLIVGAQLIHADKLGEKVEDSTMPIRRTVNSTRETPPKSKLAEGEEEKPEPDISSEESVSTVEEQENETPPATSSEAEQPKGEPENEEKEENKSSEETKKDEKDQSKEKEKKVKKTIPSWATLSASQLARAQKQTPMASSPRPKMDAILTEAIKACFQKSGASVVAIRKYIIHKYPSLELERRGYLLKQALKRELNRGVIKQVKGKGASGSFVVVQKSRKTPQKSRNRKNRSSAVDPEPQVKLEDVLPLAFTRLCEPKEASYSLIRKYVSQYYPKLRVDIRPQLLKNALQRAVERGQLEQITGKGASGTFQLKKSGEKPLLGGSLMEYAILSAIAAMNEPKTCSTTALKKYVLENHPGTNSNYQMHLLKKTLQKCEKNGWMEQISGKGFSGTFQLCFPYYPSPGVLFPKKEPDDSRDEDEDEDESSEEDSEDEEPPPKRRLQKKTPAKSPGKAASVKQRGSKPAPKVSAAQRGKARPLPKKAPPKAKTPAKKTRPSSTVIKKPSGGSSKKPATSARKEVKLPGKGKSTMKKSFRVKK
Regarding B3, under setting [1], the “Total (total peptides)” value is 7 and the “Unique (unique peptides)” value was found to be 7. Also, under setting [4], the “Total (peptides)” value is on record as 3 and the “Unique (peptides)” value was determined as 3.

B4: EHMT1 (protein, UniProt Q9H9B1 2-1298, looked up)
Histone-lysine …: AAADAEAVPARGEPQQDCCVKTELLGEETPMAADEGSAEKQAGEAHMAADGETNGSCENSDASSHANAAKHTQDSARVNPQDGTNTLTRIAENGVSERDSEAAKQNHVTADDFVQTSVIGSNGYILNKPALQAQPLRTTSTLASSLPGHAAKTLPGGAGKGRTPSAFPQTPAAPPATLGEGSADTEDRKLPAPGADVKVHRARKTMPKSVVGLHAASKDPREVREARDHKEPKEEINKNISDFGRQQLLPPFPSLHQSLPQNQCYMATTKSQTACLPFVLAAAVSRKKKRRMGTYSLVPKKKTKVLKQRTVIEMFKSITHSTVGSKGEKDLGASSLHVNGESLEMDSDEDDSEELEEDDGHGAEQAAAFPTEDSRTSKESMSEADRAQKMDGESEEEQESVDTGEEEEGGDESDLSSESSIKKKFLKRKGKTDSPWIKPARKRRRRSRKKPSGALGSESYKSSAGSAEQTAPGDSTGYMEVSLDSLDLRVKGILSSQAEGLANGPDVLETDGLQEVPLCSCRMETPKSREITTLANNQCMATESVDHELGRCTNSVVKYELMRPSNKAPLLVLCEDHRGRMVKHQCCPGCGYFCTAGNFMECQPESSISHRFHKDCASRVNNASYCPHCGEESSKAKEVTIAKADTTSTVTPVPGQEKGSALEGRADTTTGSAAGPPLSEDDKLQGAASHVPEGFDPTGPAGLGRPTPGLSQGPGKETLESALIALDSEKPKKLRFHPKQLYFSARQGELQKVLLMLVDGIDPNFKMEHQNKRSPLHAAAEAGHVDICHMLVQAGANIDTCSEDQRTPLMEAAENNHLEAVKYLIKAGALVDPKDAEGSTCLHLAAKKGHYEVVQYLLSNGQMDVNCQDDGGWTPMIWATEYKHVDLVKLLLSKGSDINIRDNEENICLHWAAFSGCVDIAEILLAAKCDLHAVNIHGDSPLHIAARENRYDCVVLFLSRDSDVTLKNKEGETPLQCASLNSQVWSALQMSKALQDSAPDRPSPVERIVSRDIARGYERIPIPCVNAVDSEPCPSNYKYVSQNCVTSPMNIDRNITHLQYCVCIDDCSSSNCMCGQLSMRCWYDKDGRLLPEFNMAEPPLIFECNHACSCWRNCRNRVVQNGLRARLQLYRTRDMGWGVRSLQDIPPGTFVCEYVGELISDSEADVREEDSYLFDLDNKDGEVYCIDARFYGNVSRFINHHCEPNLVPVRVFMAHQDLRFPRIAFFSTRLIEAGEQLGFDYGERFWDIKGKLFSCRCGSPKCRHSSAALAQRQASAAQEAQEDGLPDTSSAAAADPL
As to B4, under setting [1], the “Total (total peptides)” value was 7 and the “Unique (unique peptides)” value stood at 5. Moreover, under setting [4], the “Total (peptides)” value is on record as 3 and the “Unique (peptides)” value was 3.

B5: SAP18 (protein, UniProt O00422 2-153, looked up)
Histone deacetylase complex …: AVESRVTQEEIKKEPEKPIDREKTCPLLLRVFTTNNGRHHRMDEFSRGNVPSSELQIYTWMDATLKELTSLVKEVYPEARKKGTHFNFAIVFTDVKRPGYRVKEIGSTMSGRKGTDDSMTLQSQKFQIGDYLDIAITPPNRAPPPSGRMRPY
Turning to B5, under setting [1], the “Total (total peptides)” value stood at 7 and the “Unique (unique peptides)” value is reported as 5.

B6: DPF3 (protein, UniProt Q92784 1-378, looked up)
Zinc finger protein DPF3: MATVIHNPLKALGDQFYKEAIEHCRSYNSRLCAERSVRLPFLDSQTGVAQNNCYIWMEKRHRGPGLAPGQLYTYPARCWRKKRRLHPPEDPKLRLLEIKPEVELPLKKDGFTSESTTLEALLRGEGVEKKVDAREEESIQEIQRVLENDENVEEGNEEEDLEEDIPKRKNRTRGRARGSAGGRRRHDAASQEDHDKPYVCDICGKRYKNRPGLSYHYAHTHLASEEGDEAQDQETRSPPNHRNENHRPQKGPDGTVIPNNYCDFCLGGSNMNKKSGRPEELVSCADCGRSGHPTCLQFTLNMTEAVKTYKWQCIECKSCILCGTSENDDQLLFCDDCDRGYHMYCLNPPVAEPPEGSWSCHLCWELLKEKASAFGCQA
In the case of B6, the “Total (total peptides)” value under setting [1] was 7, the “Total (total peptides)” value under setting [7] was found to be 5 and the “Total (total peptides)” value under setting [2] amounted to 2. The “Unique (unique peptides)” value under setting [1] turned out to be 5, the “Unique (unique peptides)” value under setting [7] is recorded as 4 and the “Unique (unique peptides)” value under setting [2] is reported as 2. Further, the “Total (peptides)” value runs as follows: under setting [5], 6; under setting [6], 1. Further, the “Unique (peptides)” value worked out at 4 under setting [5] and 1 under setting [6].

B7: NOP14 (protein, UniProt P78316 1-857, looked up)
Nucleolar protein 14: MAKAKKVGARRKASGAPAGARGGPAKANSNPFEVKVNRQKFQILGRKTRHDVGLPGVSRARALRKRTQTLLKEYKERDKSNVFRDKRFGEYNSNMSPEEKMMKRFALEQQRHHEKKSIYNLNEDEELTHYGQSLADIEKHNDIVDSDSDAEDRGTLSAELTAAHFGGGGGLLHKKTQQEGEEREKPKSRKELIEELIAKSKQEKRERQAQREDALELTEKLDQDWKEIQTLLSHKTPKSENRDKKEKPKPDAYDMMVRELGFEMKAQPSNRMKTEAELAKEEQEHLRKLEAERLRRMLGKDEDENVKKPKHMSADDLNDGFVLDKDDRRLLSYKDGKMNVEEDVQEEQSKEASDPESNEEEGDSSGGEDTEESDSPDSHLDLESNVESEEENEKPAKEQRQTPGKGLISGKERAGKATRDELPYTFAAPESYEELRSLLLGRSMEEQLLVVERIQKCNHPSLAEGNKAKLEKLFGFLLEYVGDLATDDPPDLTVIDKLVVHLYHLCQMFPESASDAIKFVLRDAMHEMEEMIETKGRAALPGLDVLIYLKITGLLFPTSDFWHPVVTPALVCLSQLLTKCPILSLQDVVKGLFVCCLFLEYVALSQRFIPELINFLLGILYIATPNKASQGSTLVHPFRALGKNSELLVVSAREDVATWQQSSLSLRWASRLRAPTSTEANHIRLSCLAVGLALLKRCVLMYGSLPSFHAIMGPLQALLTDHLADCSHPQELQELCQSTLTEMESQKQLCRPLTCEKSKPVPLKLFTPRLVKVLEFGRKQGSSKEEQERKRLIHKHKREFKGAVREIRKDNQFLARMQLSEIMERDAERKRKVKQLFNSLATQEGEWKALKRKKFKK
Take B7: under setting [1], the “Total (total peptides)” value is 7 and the “Unique (unique peptides)” value was determined as 7. Further, under setting [4], the “Total (peptides)” value is 3 and the “Unique (peptides)” value is 3.
